The entries are a selection whose mix differs from that of the whole data set.
What follows are targets tested with COC(=O)C#Cc1ccccc1 [methyl 3-phenylpropiolate] (assay: log2 ratio of iodoacetamide-alkyne labeling of the cysteine site, DMSO over compound (competition); higher = stronger covalent engagement of the cysteine by the compound, active = 1 or more). Details: 500 µM; treatment time 1 h; system: HEK293T cell lysate.
Method in brief: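 After 1 h at ambient temperature with vehicle or electrophile (500 µM), HEK293T lysate (2 mg/mL) was labelled for 1 h with iodoacetamide alkyne and clicked to sCIP-TMT reagents. Pooled samples were trypsin-digested overnight at 37 °C, streptavidin-enriched, acid-eluted and analysed by Orbitrap Eclipse LC-MS/MS with FAIMS, then quantified in FragPipe over three replicates with duplicate channels. A cysteine's log2 competition ratio is its mean control-channel over mean compound-channel reporter intensity. Cysteines quantified in only one replicate were not included.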

By UniProt entry, the sequences of proteins in these tests, tags left out. Where a name states a change or a piece, a line headed by the entry shows the natural chain unless it says otherwise.
UniProt Q7Z6Z7, whole entry, looked up: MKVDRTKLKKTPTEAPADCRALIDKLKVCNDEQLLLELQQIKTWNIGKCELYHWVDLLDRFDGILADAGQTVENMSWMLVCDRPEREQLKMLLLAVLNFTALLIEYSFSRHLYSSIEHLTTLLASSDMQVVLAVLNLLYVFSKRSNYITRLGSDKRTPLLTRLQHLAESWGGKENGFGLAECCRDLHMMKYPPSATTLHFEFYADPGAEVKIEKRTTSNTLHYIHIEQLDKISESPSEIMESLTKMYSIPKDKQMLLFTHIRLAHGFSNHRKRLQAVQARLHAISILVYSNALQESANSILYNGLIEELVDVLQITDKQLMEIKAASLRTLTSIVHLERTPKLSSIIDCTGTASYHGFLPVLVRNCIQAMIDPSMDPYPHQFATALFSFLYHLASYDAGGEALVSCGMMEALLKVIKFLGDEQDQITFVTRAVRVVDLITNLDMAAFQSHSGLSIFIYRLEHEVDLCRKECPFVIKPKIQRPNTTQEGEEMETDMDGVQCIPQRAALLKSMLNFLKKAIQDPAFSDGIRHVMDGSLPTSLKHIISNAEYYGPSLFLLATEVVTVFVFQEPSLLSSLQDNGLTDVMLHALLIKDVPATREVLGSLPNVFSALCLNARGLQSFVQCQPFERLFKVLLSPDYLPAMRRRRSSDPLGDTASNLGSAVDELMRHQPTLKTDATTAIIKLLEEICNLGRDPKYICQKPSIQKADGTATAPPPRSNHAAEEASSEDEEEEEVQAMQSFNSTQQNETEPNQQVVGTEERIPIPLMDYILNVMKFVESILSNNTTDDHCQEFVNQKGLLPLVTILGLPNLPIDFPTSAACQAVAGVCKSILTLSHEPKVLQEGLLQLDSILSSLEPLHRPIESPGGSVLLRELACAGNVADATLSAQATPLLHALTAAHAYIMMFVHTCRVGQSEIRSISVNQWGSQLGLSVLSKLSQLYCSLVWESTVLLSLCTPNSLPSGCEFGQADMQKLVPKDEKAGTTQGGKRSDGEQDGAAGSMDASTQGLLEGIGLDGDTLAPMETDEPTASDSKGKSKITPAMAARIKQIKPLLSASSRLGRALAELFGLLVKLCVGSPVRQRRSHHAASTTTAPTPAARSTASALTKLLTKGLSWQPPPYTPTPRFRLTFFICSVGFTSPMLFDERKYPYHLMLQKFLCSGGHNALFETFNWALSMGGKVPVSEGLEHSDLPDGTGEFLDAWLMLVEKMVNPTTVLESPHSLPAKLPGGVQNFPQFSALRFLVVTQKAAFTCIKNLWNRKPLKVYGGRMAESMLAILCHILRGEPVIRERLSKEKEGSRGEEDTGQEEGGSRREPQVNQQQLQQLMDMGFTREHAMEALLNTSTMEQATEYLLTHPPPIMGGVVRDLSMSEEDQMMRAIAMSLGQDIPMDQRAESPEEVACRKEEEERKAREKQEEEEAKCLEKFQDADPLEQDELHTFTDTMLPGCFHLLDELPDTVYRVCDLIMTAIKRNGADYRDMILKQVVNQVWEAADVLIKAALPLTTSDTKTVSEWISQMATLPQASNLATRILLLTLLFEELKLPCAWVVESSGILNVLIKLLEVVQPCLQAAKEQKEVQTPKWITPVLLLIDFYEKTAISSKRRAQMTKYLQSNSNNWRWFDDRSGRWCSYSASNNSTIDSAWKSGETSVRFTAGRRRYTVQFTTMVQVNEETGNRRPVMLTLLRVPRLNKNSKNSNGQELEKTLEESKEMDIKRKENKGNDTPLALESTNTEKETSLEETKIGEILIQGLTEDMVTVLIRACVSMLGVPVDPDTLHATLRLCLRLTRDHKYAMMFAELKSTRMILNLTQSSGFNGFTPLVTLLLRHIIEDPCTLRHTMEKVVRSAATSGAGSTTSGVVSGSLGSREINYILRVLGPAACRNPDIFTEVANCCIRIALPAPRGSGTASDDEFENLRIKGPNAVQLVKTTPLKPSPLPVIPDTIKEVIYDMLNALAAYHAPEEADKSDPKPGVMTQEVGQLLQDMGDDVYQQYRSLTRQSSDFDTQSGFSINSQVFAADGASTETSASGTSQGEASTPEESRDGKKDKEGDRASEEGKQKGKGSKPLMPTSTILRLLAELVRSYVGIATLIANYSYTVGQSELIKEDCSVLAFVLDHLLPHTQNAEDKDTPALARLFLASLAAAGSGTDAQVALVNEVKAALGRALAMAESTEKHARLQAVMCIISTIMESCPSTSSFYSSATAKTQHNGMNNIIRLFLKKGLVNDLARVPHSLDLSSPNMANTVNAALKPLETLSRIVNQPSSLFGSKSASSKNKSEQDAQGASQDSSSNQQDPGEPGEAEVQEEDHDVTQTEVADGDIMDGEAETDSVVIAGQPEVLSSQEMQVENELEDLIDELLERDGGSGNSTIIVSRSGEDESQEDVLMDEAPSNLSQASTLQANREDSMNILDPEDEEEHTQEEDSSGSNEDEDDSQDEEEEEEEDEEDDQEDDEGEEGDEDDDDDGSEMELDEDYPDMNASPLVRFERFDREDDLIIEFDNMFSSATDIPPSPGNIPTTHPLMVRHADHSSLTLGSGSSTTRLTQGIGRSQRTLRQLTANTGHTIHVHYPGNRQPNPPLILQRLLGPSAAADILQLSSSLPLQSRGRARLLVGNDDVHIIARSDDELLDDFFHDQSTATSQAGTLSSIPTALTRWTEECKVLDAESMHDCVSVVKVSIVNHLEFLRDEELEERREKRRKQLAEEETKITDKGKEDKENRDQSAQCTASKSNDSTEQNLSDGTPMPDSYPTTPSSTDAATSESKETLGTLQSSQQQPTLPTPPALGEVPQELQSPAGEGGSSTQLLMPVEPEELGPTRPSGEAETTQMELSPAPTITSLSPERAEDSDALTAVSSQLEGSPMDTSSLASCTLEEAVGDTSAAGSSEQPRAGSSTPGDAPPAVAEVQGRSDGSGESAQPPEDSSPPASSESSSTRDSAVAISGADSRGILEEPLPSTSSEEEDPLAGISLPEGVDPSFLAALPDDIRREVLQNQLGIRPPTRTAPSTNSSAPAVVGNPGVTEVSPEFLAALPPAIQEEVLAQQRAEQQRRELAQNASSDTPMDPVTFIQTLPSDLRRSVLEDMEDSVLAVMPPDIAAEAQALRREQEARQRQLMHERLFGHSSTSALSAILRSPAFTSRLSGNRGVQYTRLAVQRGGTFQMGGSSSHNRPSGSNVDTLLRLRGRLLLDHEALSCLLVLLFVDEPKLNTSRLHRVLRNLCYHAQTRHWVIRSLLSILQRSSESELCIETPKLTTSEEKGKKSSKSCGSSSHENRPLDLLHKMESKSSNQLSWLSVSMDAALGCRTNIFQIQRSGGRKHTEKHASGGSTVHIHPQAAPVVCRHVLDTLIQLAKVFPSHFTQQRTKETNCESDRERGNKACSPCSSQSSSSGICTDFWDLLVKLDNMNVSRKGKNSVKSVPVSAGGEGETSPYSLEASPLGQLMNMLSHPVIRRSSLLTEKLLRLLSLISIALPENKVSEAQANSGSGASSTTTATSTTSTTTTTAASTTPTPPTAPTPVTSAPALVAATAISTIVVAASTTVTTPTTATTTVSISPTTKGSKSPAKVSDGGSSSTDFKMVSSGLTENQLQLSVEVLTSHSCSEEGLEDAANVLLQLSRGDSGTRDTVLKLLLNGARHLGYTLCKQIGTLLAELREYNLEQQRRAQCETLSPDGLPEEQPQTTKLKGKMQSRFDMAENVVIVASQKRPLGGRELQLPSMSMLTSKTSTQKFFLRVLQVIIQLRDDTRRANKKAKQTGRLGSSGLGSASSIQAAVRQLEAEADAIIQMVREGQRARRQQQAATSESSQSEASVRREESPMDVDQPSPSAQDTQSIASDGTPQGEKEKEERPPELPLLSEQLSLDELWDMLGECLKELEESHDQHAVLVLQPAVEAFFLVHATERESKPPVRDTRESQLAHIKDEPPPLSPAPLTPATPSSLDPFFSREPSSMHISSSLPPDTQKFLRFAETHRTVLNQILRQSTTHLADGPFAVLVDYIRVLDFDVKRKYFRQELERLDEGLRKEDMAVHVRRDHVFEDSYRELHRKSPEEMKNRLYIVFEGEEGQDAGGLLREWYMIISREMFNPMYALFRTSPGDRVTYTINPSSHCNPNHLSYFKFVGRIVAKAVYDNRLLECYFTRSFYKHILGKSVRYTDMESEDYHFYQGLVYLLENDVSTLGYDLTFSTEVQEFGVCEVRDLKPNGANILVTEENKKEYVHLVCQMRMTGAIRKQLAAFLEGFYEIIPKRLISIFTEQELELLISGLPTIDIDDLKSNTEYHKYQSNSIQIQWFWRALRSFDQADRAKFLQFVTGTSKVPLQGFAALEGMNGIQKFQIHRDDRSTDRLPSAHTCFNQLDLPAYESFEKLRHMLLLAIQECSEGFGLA
UniProt Q86UV5: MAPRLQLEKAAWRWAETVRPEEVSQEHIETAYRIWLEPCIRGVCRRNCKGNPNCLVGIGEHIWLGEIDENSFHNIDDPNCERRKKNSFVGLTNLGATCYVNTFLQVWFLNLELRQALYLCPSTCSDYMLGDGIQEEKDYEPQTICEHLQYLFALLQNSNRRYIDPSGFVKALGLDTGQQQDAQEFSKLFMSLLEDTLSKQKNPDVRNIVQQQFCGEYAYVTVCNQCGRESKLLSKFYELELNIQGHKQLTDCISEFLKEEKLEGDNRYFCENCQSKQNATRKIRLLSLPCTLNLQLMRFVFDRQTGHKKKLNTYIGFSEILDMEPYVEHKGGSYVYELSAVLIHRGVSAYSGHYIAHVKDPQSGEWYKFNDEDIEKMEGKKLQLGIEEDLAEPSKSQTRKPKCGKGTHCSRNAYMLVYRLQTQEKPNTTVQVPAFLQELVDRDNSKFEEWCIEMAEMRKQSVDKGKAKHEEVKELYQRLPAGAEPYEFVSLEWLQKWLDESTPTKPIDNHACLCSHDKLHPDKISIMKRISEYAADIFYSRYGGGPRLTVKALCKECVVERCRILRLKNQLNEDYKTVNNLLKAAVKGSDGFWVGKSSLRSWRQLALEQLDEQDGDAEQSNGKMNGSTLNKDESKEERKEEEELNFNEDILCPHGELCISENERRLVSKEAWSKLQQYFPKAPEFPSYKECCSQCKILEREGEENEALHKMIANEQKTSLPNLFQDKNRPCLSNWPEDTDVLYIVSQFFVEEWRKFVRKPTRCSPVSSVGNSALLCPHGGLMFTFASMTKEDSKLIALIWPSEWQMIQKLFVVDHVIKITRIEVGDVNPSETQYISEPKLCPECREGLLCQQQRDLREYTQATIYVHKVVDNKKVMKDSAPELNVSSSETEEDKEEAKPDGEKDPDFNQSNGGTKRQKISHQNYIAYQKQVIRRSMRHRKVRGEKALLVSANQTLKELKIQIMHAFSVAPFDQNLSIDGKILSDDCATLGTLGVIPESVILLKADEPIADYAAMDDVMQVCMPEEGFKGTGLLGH
UniProt Q8IXM2, whole entry, looked up: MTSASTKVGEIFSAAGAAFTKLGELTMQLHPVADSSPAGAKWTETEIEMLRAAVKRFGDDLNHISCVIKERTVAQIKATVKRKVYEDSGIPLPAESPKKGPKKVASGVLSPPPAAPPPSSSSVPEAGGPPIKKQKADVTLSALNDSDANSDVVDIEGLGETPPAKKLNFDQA
UniProt Q8IWB7: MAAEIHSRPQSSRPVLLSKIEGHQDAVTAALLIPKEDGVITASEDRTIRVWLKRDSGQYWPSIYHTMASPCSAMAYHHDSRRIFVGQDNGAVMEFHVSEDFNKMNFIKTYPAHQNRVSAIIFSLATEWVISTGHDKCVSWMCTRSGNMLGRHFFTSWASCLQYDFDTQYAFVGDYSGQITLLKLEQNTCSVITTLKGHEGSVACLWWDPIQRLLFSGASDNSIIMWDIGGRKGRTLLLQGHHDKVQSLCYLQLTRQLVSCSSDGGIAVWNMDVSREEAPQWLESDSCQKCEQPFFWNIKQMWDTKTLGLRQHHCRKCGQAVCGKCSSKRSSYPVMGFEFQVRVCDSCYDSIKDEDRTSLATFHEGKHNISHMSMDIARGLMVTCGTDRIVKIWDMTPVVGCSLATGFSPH
UniProt Q86U44, whole entry: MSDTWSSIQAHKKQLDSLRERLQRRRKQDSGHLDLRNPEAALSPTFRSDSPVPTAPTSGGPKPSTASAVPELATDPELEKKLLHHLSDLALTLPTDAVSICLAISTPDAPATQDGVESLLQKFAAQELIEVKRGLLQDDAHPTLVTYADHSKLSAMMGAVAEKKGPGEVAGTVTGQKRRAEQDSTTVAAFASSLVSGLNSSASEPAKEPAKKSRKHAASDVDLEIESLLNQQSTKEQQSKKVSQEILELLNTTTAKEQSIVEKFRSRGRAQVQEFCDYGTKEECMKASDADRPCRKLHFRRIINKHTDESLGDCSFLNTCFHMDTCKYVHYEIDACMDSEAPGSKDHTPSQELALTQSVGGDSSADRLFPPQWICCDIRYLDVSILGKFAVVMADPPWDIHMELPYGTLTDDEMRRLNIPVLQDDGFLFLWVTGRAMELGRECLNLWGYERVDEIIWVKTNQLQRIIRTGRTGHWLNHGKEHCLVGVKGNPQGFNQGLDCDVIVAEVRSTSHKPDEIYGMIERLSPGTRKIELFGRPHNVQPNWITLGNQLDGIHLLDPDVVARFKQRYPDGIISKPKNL

log2 ratio of iodoacetamide-alkyne labeling, inactive:
SND1 C560 (UniProt Q7KZF4) 0.522
UniProt Q7Z2T5_C265 0.161
HUWE1 C3658 (UniProt Q7Z6Z7) 0.24
CEP97 C336 (UniProt Q8IW35) 0.493
UniProt Q7RTV0_C40 0.0358
USP48 C54 (UniProt Q86UV5) 0.174
RPUSD2 C246 (UniProt Q8IZ73) -0.128
HUWE1 C3239 (UniProt Q7Z6Z7) 0.243
USP48 C145 (UniProt Q86UV5) 0.0153
TBC1D1 C1160 (UniProt Q86TI0) 0.493
UniProt Q8IXM2_C66 0.167
DIS3L2 C312 (UniProt Q8IYB7) 0.226
IRF2BP2 C40 (UniProt Q7Z5L9) 0.276
RHOT2 C216 (UniProt Q8IXI1) 0.167
PNPLA6 C409 (UniProt Q8IY17) 0.4
HUWE1 C790 (UniProt Q7Z6Z7) 0.465
EMSY C1211 (UniProt Q7Z589) 0.802
UniProt Q7Z4V5_C631 0.0968
HUWE1 C1628 (UniProt Q7Z6Z7) 0.213
CAND1 C131 (UniProt Q86VP6) 0.338
ALDH16A1 C350 (UniProt Q8IZ83) 0.0503
UniProt Q7Z5K2_C964 0.46
SLFN11 C126 (UniProt Q7Z7L1) 0.146
UniProt Q7Z2Z2_C599 0.247
PBRM1 C138 (UniProt Q86U86) 0.00396
CCAR1 C579 (UniProt Q8IX12) 0.0854
ANKLE2 C674 (UniProt Q86XL3) 0.639
CCAR1 C465 (UniProt Q8IX12) 0.502
WDFY1 C290 (UniProt Q8IWB7) -0.103
SETD3 C36 (UniProt Q86TU7) 0.0594
USP48 C80 (UniProt Q86UV5) 0.174
EXOC8 C172 (UniProt Q8IYI6) 0.0248
TSEN54 C338 (UniProt Q7Z6J9) 0.107
IRF2BP1 C207 (UniProt Q8IU81) 0.142
PHF6 C280 (UniProt Q8IWS0) -0.0965
ANKMY2 C277 (UniProt Q8IV38) 0.213
METTL3 C500 (UniProt Q86U44) 0.475

Retrieved one by one from the entries so far:
log2 ratio of iodoacetamide-alkyne labeling, inactive:
IRF2BP2 C40 (UniProt Q7Z5L9) 0.276
EMSY C1211 (UniProt Q7Z589) 0.802
SLFN11 C126 (UniProt Q7Z7L1) 0.146

Reference: the supplement of paper PMC11006884
